# Laboratory results as given in PubChem BioAssay AID743255 (National Center for Advancing Translational Sciences (NCATS), 2014).
# Amino acid sequences for entries named in this document (tags omitted). A change or cut given only in a name is not applied to a line headed by its entry.
# UniProt O94782: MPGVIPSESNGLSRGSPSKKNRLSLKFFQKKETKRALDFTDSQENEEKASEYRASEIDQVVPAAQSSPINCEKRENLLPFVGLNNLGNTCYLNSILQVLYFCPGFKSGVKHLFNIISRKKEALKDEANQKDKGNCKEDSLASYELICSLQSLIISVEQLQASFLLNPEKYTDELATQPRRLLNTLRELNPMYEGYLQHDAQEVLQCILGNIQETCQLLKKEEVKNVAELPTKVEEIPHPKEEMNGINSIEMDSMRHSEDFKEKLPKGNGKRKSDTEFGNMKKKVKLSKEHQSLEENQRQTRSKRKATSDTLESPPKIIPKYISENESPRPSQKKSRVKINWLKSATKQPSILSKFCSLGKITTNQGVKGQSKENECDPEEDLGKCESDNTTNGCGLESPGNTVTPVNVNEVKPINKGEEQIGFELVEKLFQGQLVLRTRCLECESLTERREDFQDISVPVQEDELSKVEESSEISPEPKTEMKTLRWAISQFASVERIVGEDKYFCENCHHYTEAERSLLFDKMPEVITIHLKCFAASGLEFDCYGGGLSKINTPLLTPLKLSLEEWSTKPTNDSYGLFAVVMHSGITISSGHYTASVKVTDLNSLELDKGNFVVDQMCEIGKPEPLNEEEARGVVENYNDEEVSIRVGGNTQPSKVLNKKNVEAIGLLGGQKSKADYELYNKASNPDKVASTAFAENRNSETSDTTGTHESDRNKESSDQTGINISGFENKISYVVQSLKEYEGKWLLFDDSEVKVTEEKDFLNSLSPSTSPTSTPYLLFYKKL
# The campaign covered roughly 390,000 compounds. About 910 (0.23%) were called active. The inconclusive results got no clear call from the source; some entries with a clear call stand among them for comparison. The call rests on the fitted dose curve; in most records, active means well fitted inhibition curve with a large enough effect; inconclusive means small, poorly fitted or top-dose-only effect; inactive means no such curve, though single readings can be large or run the other way. Potencies of inconclusive entries are doubtful fits and often do not repeat.
# Target: Ubiquitin carboxyl-terminal hydrolase 1 (Homo sapiens) (UniProt O94782)
# Test: Inhibitors of USP1/UAF1: Primary Screen; further: nearly all actives have a fitted effect of over 60% in size
# Conditions: recombinant USP1/UAF1, Ub-Rhodamine cleavage fluorescence; activity change, negative = inhibition: at 57.1 µM (top of the series)
# How it was run: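 In this screen, compounds sit with the deubiquitinase complex (1nM) for 15 min at room temperature before Ub-Rho is added at 150nM final. Fluorescence rise is then followed for 6 reads every 60 seconds.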
# On the % scale 0 is the no-effect control and ±100 the full control effect; potency means the concentration at half of the fitted maximal effect.
Compound,Potency,"activity change, negative = inhibition"
C/C(=N\NC(=O)c1ccc(-c2ccccc2)cc1)c1cccc(N)c1,"inconclusive: 0.562 µM [inhibitor, full curve, poor fit]",–
COc1cc(NS(=O)(=O)c2ccc(NC(=O)COc3ccccc3C)cc2)nc(OC)n1,"inconclusive: 14.1 µM [inhibitor, single point]",–
COC(=O)/C=c1/s/c(=C(\C#N)C(=O)NCc2ccco2)n(-c2ccc(C)cc2)c1=O,"inconclusive: 44.7 µM [inhibitor, partial curve]",–
COc1ccc(NS(=O)(=O)c2c(C)n(C)c(=O)n(C)c2=O)cc1OC,"inconclusive: 3.55 µM [inhibitor, full curve, poor fit]",–
O=C(NC(=S)NC1CCCC1)c1ccccc1,–,inactive: -27.7%
COc1ccccc1NC(=O)CN1C(=O)c2cccc3cccc1c23,"inconclusive: 0.355 µM [inhibitor, full curve, poor fit]",–
C[C@H](CO)N1C[C@H](C)[C@@H](CN(C)Cc2ccccc2)Oc2ccc(NC(=O)CCCCCC(=O)Nc3ccccc3N)cc2C1=O,"inconclusive: 5.01 µM [inhibitor, partial curve]",–
Cc1cccc(CN2C(=O)CC(c3ccc(Cl)cc3)c3c(C)nn(-c4nc(C)cc(C)n4)c32)c1 (centres undefined),"inconclusive: 25.1 µM [inhibitor, partial curve, poor fit]",–
COc1cc(-n2c(=O)c3ccccc3n(CC(=O)OCc3ccccc3)c2=O)cc(OC)c1OC,"inconclusive: 0.282 µM [inhibitor, full curve, poor fit]",–
O=C(COC(=O)c1cccnc1Cl)NCCCc1ccccc1,–,inactive: -22.4%
CO/N=C\c1cc(C(=O)c2ccc(Cl)cc2Cl)cn1C,–,inactive: -22.4%
COC(=O)C1Cc2c([nH]c3ccccc23)C2CCC(=O)N12 (centres undefined),"inconclusive: 7.94 µM [inhibitor, partial curve, poor fit]",–
O=C(Nc1ccc(N2CCN(C(=O)c3ccccc3)CC2)cc1)c1ccc2c(c1)OCCO2,–,inactive: -18.8%
COc1cc(-c2nnc(SCC(=O)OC3CCCCC3)o2)cc(OC)c1OC,"inconclusive: 39.8 µM [inhibitor, partial curve]",–
O=C(Cn1nc(N2CCN(c3ccccc3)CC2)ccc1=O)NCc1cccc(Cl)c1,"inconclusive: 1.78 µM [inhibitor, full curve, poor fit]",–
C[C@H](CO)N1C[C@H](C)[C@@H](CN(C)C(=O)Nc2ccc(C(F)(F)F)cc2)Oc2ccc(NC(=O)Cn3cnnn3)cc2C1=O,–,inactive: -15.1%
O=C(Nn1cnc2ccccc2c1=O)c1ccccc1[N+](=O)[O-],"inconclusive: 5.62 µM [inhibitor, partial curve]",–
Cc1nnc(N2C(=O)C(O)=C(C(=O)c3ccco3)C2c2ccc(F)cc2)s1 (centres undefined),–,inactive: -6.64%
Cn1c2ccccc2c(=O)c2ccc(C#Cc3ccc(N)cc3)cc21,"inconclusive: 39.8 µM [inhibitor, partial curve]",–
COC1=C(Br)C(=O)c2ncccc2C1=O,active: 0.891 µM,–
Cc1nc2nc(SCC(=O)NCc3ccccc3)nn2c(C)c1Cc1ccccc1Cl,–,inactive: -13.7%
CC(C)(C)c1ccc(S(=O)(=O)CCc2ccccn2)cc1,–,inactive: -15.9%

Compound,Potency,"activity change, negative = inhibition"
CCCCCCNC(=O)c1cccc(-c2ccc(C)c3ccccc23)n1,"inconclusive: 31.6 µM [inhibitor, partial curve]",–
OCCNCCO,"inconclusive: 4.47 µM [inhibitor, partial curve]",–
CCN(C(=O)COc1cc(=O)n(C)c2ccccc12)c1cccc(C(F)(F)F)c1,"inconclusive: 1120 µM [inhibitor, partial curve, poor fit]",–
CCOc1ccc(OCC)c(C2C(C#N)=C(N)N(c3cccnc3)C3=C2C(=O)CC(C)(C)C3)c1 (centres undefined),–,inactive: -7.19%
CCOC(=O)c1c(-c2ccccc2)csc1/N=C/C1C(=O)CCCC1=O,"inconclusive: 44.7 µM [inhibitor, partial curve, poor fit]",–
COc1ccc(-c2nc3nc(C)cc(Nc4ccc(C(C)=O)cc4)n3n2)cc1,"inconclusive: 31.6 µM [inhibitor, partial curve]",–
N#CC1C(=O)NC(c2ccccc2)=CC1c1ccccc1 (centres undefined),"inconclusive: 56.2 µM [inhibitor, partial curve, poor fit]",–
COc1cccc(NC(=O)c2oc3ccccc3c2NC(=O)C23CC4CC(CC(C4)C2)C3)c1,"inconclusive: 3.98 µM [inhibitor, partial curve]",–
CC(C)Cn1c(=S)[nH]c2cc(Cl)ccc21,"inconclusive: 3.55 µM [inhibitor, single point]",–
CCN(CC)S(=O)(=O)c1cc(NC(=O)Cn2ncc(Cl)c(Cl)c2=O)ccc1C,–,inactive: -19.4%
C=C(C)C1(O)OC(=O)C=C1OC (centres undefined),"inconclusive: 35.5 µM [inhibitor, single point]",–
COc1cc(C(=O)CSc2nccn2C)cc(OC)c1OC,"inconclusive: 31.6 µM [inhibitor, partial curve]",–
COc1ccc(-c2coc3cc(OC)ccc3c2=O)cc1,"inconclusive: 10 µM [inhibitor, partial curve]",–
O=S(=O)(NC1CC2CCC1C2)c1ccc(Br)cc1 (centres undefined),"inconclusive: 50.1 µM [inhibitor, partial curve, poor fit]",–
CC(C)COc1cccc(-c2cc(C(=O)Nc3ccon3)c3ccccc3n2)c1,"inconclusive: 35.5 µM [inhibitor, single point]",–
Cc1oc2c(O)c(O)ccc2c(=O)c1-c1ccccc1,"inconclusive: 39.8 µM [inhibitor, single point]",–
COC(=O)c1ccc(CSc2nc3cc(Cl)ccc3o2)cc1,"inconclusive: 35.5 µM [inhibitor, partial curve]",–
CC1CCCN(CCOc2ccc3ccccc3c2Br)C1 (centres undefined),"inconclusive: 28.2 µM [inhibitor, single point]",–
Cc1ccc(N=Cc2sc(O)c3ccccc23)cc1,"inconclusive: 35.5 µM [inhibitor, single point]",–
C[C@H](CO)N1C[C@H](C)[C@@H](CN(C)S(=O)(=O)c2ccc(F)cc2)Oc2ccc(NS(=O)(=O)c3ccccc3)cc2C1=O,"inconclusive: 0.282 µM [inhibitor, full curve, poor fit]",–
O=C(Nc1ccc2ncccc2c1)c1ccccc1,–,inactive: -15.7%
Cc1cccc(C)c1OCC(=O)N(Cc1ccc(Cl)cc1)CC1CCCO1 (centres undefined),–,inactive: -26.1%

Compound,Potency,"activity change, negative = inhibition"
C[C@@H]1CN([C@@H](C)CO)C(=O)c2cc(NS(C)(=O)=O)ccc2O[C@@H](C)CCCCO[C@H]1CN(C)Cc1ccc2c(c1)OCO2,"inconclusive: 0.282 µM [inhibitor, full curve]",–
Cc1oc2c(c1C(=O)Nc1ccc(Cl)cc1F)C1=NCCN1C=N2,–,inactive: -14.9%
COC(=O)c1ccc(OC)c(CN2CCCN(Cc3ccc(C)cc3)S2(=O)=O)c1,"inconclusive: 0.224 µM [inhibitor, full curve]",–
COc1cc2c(cc1OC)C(COc1ccc3c(C)cc(=O)oc3c1)N(C(=O)c1ccc(C)c(C)c1)CC2 (centres undefined),"inconclusive: 5.01 µM [inhibitor, partial curve, poor fit]",–
Cc1ccc(S(=O)(=O)c2nc(S(C)(=O)=O)sc2N2CCN(C)CC2)cc1,–,inactive: -23.9%
C=C1CCN([C@@H](Cc2ccccc2)C(=O)NCc2ccc(Cl)c(Cl)c2)S(=O)(=O)c2ccccc21,"inconclusive: 0.251 µM [inhibitor, full curve, poor fit]",–
CCN1C(=O)[C@@H]2[C@@H](c3ccc(-c4ccc(Cl)c(Cl)c4)c(OC)c3)N3CCC[C@@]3(C(=O)OC)[C@@H]2C1=O,"inconclusive: 89.1 µM [inhibitor, partial curve, poor fit]",–
O=C(COc1ccccc1-c1ccccc1)N/N=C/c1cccc2ccccc12,–,inactive: -6.67%
COc1ccc(CNC(=O)Cn2ccc3cc(S(=O)(=O)N4CCCCCC4)ccc32)c(OC)c1,–,inactive: -14.3%
Cc1c(CN2CCC(CO)(CCOc3ccccc3)CC2)[nH]c2c(Cl)cccc12,"inconclusive: 50.1 µM [inhibitor, partial curve, poor fit]",–
Cc1ccc(NC(=O)Cn2c(=O)n(CCc3ccccc3)c(=O)c3c4c(sc32)CCCC4)cc1C,"inconclusive: 44.7 µM [inhibitor, partial curve]",–
O=C1C=C(c2ccccc2)C[C@@H](c2ccc3c(c2)OCO3)C1,"inconclusive: 5.01 µM [inhibitor, partial curve]",–
COc1ccc(NC(=O)/C(Cl)=C(/Cl)S(=O)Cc2ccc(Cl)cc2)cn1 (centres undefined),"inconclusive: 35.5 µM [inhibitor, partial curve, poor fit]",–
CCc1ccc(NC(=O)Cn2c(=O)ccc3cc(S(=O)(=O)N4CCCC4)ccc32)cc1,"inconclusive: 12.6 µM [inhibitor, partial curve]",–
COc1ccc(C(=S)NC2CCCCC2)cc1,–,inactive: -2.08%
Nc1ccc2c(c1)C(=O)c1ccccc1-2,–,inactive: -6.8%
CCC(CO)Oc1cc(NCc2ccc(C)cc2)c2ncn(C(C)C)c2c1 (centres undefined),"inconclusive: 20 µM [inhibitor, partial curve]",–
O=C(C[C@H]1C[C@H](C(=O)N2CCCCC2)[C@@]2(CCc3ccccc3)c3[nH]c4ccc(Cl)cc4c3CCN2C1=O)NCc1ccco1,"inconclusive: 44.7 µM [inhibitor, partial curve, poor fit]",–
Cc1cccc(C)c1NC(=O)CN(c1c(C)cccc1C)S(C)(=O)=O,"inconclusive: 158 µM [inhibitor, partial curve, poor fit]",–
COc1ccc(-c2nc3scc(CCNS(=O)(=O)c4cccc(C(C)=O)c4)n3n2)cc1,"inconclusive: 79.4 µM [inhibitor, partial curve, poor fit]",–
